Source: paper PMC4882581, “Characterisation of assembly and ubiquitylation by the RBCC motif of Trim5α” (Scientific Reports, 2016)
No constants are given. Whether binding was seen depends on the method and setting.

Chains of the proteins cited; added tags and fusions are not shown. Lines headed by an entry give the natural chain unless they say otherwise; changes in a name come on top. A line that says so, or that is headed by a name, gives the form on record, which may keep a tag or linker. Residues count along the entry.
RhT5 1–70 (Trim5α RING domain) (Q0PF16, residues 1-70): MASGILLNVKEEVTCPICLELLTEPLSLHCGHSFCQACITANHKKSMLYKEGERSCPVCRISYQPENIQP
RhT5 88–261dCC E120K/R121D (Q0PF16, form named): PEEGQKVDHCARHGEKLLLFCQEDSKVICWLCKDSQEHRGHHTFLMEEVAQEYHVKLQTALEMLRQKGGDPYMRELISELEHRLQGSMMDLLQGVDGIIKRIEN

What was measured:
[1] = molecular target: RhT5 1–70 (Trim5α RING domain) (Rhesus macaque) (UniProt Q0PF16); assay: SEC-MALLS; Superdex 75 10/300 GL (RhT5 1–70, RhT5 88–261dCC) or Superdex S200 Increase 10/300 GL (RhT5 1–261dCC); 10 mM Tris/HCl pH 7.8, 150 mM NaCl, 0.1 mM TCEP; several protein concentrations; both purified
[2] = molecular target: RhT5 88-261dCC E120K/R121D (Rhesus macaque) (UniProt Q0PF16); assay: AUC; sedimentation velocity, c(S) analysis in SEDFIT, 50 krpm, 20 °C, 10 mM Tris/HCl pH 7.8, 150 mM NaCl; self-association over a series of protein concentrations; both purified
[3] = molecular target: RhT5 88-261dCC E120K/R121D (Rhesus macaque) (UniProt Q0PF16); assay: SEC-MALLS; Superdex 75 10/300 GL (RhT5 1–70, RhT5 88–261dCC) or Superdex S200 Increase 10/300 GL (RhT5 1–261dCC); 10 mM Tris/HCl pH 7.8, 150 mM NaCl, 0.1 mM TCEP; several protein concentrations; both purified
[4] = molecular target: RhT5 88-261dCC E120K/R121D (Rhesus macaque) (UniProt Q0PF16); assay: SAXS; serial dilution 60–480 μM (0.75 to 6.0 mg/mL); 10 mM Tris-HCl pH 7.8, 150 mM NaCl, 0.1 mM TCEP; both purified
[5] = molecular target: RhT5 88-261dCC E120K/R121D (Rhesus macaque) (UniProt Q0PF16); assay: AUC; sedimentation velocity, c(S) analysis, and isotherm of the weight-averaged S fit to a monomer-trimer model (monomer to trimer, RhT5 1–261dCC); 20 °C; 10 mM Tris/HCl pH 7.8, 150 mM NaCl; 50 krpm (RhT5 94–141, RhT5 88–261dCC) or 38 krpm (RhT5 1–261dCC); both purified

RhT5 1–70 (Trim5α RING domain) (from UniProt Q0PF16 1-70) (domain or fragment)
binding [1]: no binding

RhT5 88-261dCC E120K/R121D (from UniProt Q0PF16 88-154; Q0PF16 229-261) (domain or fragment)
binding [2]: no binding (tested: 20-80 μM)

RhT5 88–261dCC E120K/R121D (from UniProt Q0PF16 88-154; Q0PF16 229-261) (domain or fragment)
binding [3]: no binding
binding [4]: no binding (tested: 60–480 μM)
binding [5]: no binding (tested: 20–80 μM)
